US5968823A, “Glycine transporter-transfected avian cells and uses thereof” (Allelix Neuroscience Inc., priority 1998, dated 1999)

Target: T1, GlyT-2 (Rattus norvegicus, UniProt P58295)
T1 construct: expressed in transfected cells; host or cells: QT-6 quail fibroblast cells (ATCC CRL-1708), transient transfection
T1 sequence (P58295 1-799): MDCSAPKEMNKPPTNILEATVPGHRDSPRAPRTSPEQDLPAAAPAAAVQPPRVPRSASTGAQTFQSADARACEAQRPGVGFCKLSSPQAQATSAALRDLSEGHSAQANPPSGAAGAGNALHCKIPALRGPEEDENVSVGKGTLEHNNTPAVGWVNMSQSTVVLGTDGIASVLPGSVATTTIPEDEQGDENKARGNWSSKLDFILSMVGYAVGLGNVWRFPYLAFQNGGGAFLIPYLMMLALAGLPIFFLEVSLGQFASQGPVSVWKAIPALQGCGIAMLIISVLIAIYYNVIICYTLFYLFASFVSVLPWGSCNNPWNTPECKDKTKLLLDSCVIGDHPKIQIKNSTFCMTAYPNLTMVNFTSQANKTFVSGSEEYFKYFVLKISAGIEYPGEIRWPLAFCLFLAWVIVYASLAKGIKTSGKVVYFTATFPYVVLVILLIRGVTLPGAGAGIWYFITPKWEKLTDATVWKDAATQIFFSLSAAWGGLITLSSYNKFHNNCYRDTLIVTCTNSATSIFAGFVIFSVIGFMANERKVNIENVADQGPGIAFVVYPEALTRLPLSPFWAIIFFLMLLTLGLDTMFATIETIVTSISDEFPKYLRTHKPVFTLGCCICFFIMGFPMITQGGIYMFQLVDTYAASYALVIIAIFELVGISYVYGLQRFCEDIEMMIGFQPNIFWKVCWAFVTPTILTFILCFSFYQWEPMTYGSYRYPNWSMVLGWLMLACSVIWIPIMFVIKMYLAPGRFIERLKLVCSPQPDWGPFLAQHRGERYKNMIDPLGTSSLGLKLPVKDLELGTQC
Assay: Inhibition of [3H]glycine uptake in QT-6 cells transiently transfected with GlyT-2
Assay type: cell-based
Conditions: QT-6 cells transfected with GlyT-2; 50 nM [3H]glycine, 20 min at 37° C; read-out: Effect Via GlyT-2, pIC50 (converted)
Method: This example sets forth methods and materials used for growing and transfecting QT-6 cells.
The following four day procedure for the tranfections was used:
On day 1, QT-6 cells were plated at a density of 1×10^6 cells in 10 ml of complete QT-6 medium in 100 mm dishes.
On day 2, the medium was aspirated and the cells were washed with 10 ml of PBS followed by 10 ml of TBS. The TBS was aspirated, then 1 ml of the DEAE/DNA mix was added to the plate. The plate was swirled in the hood every 5 minutes. After 30 minutes, 8 ml of 80 μM chloroquine in QT-6 medium was added and the culture was incubated for 2.5 hours at 37° C. and 5% CO2. The medium was then aspirated and the cells were washed two times with complete QT-6 medium, then […] complete QT-6 medium was added and the cells were returned to the incubator.
On day 3, the cells were removed with trypsin/EDTA as described above, and plated into the wells of 96-well assay plates at approximately 2×10^5 cells/well.
On day 4, glycine transport was assayed as described in Example 2. […]
Transient GlyT-transfected cells or control ("mock") cells grown in accordance with Example 1 were washed three times with HEPES buffered saline (HBS). […] The cells were harvested, scintillant was added to the cells, the cells were shaken for 30 minutes, and the radioactivity in the cells was counted using a scintillation counter. […]

CSc1ccc2c(c1)N(CCC1CCCCN1C)c1ccccc1S2 (stereo not shown) [ZD]
IC50: 19.5 µM
